# PubChem BioAssay AID1508597 – Cure First, 2020
# Aim: 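Survival screen with siRNA in ovarian cancer cells derived from patients, with or without rucaparib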 (primary screen)
# Cells: human ovarian carcinoma lines grown from tumours: OCI-P5x (papillary serous) and OCI-C5x (clear cell)
# Reagents: siRNA pool against human genes, 1.25 pmol siRNA per well
# Duration: 72 h or 96 h, depending on the cell culture
# Conditions: rucaparib 20 µM (about IC30) or vehicle, present until read-out
# Measured: 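Luminescent ATP-based viability assay read 72 or 96 h after transfection, depending on culture, given as normalised percent viability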
# Reading the numbers: viability, normalised: higher = more viable cells remaining
# Active means: 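a well counts as a hit if its normalised viability is under 80 percent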
# Meaning of the calls: active = viability under 80%; inactive = viability 80% or more
# Shown is one part, drawn at random, of about 2,100 reagents tested. 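Calls flag viability under 80% in either arm, not effects specific to rucaparib; the reference for percent is not stated.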 Unmarked entries are inactive. A reagent listed more than once was tested more than once; the source does not tell the runs apart. No sequences are given here. The record does not give: the 100% reference.
target gene,rucaparib or vehicle,cell line,technical replicate,"viability, normalised (%)"
RFC1,Rucaparib,OCI-C5x (clear cell),1,51.1 (active)
RFC1,Rucaparib,OCI-C5x (clear cell),2,45.9 (active)
RFC1,Rucaparib,OCI-C5x (clear cell),3,51.8 (active)
RFC1,Rucaparib,OCI-P5x (serous),1,83
RFC1,Rucaparib,OCI-P5x (serous),2,78.7 (active)
RFC1,Rucaparib,OCI-P5x (serous),3,83.6
RFC1,Vehicle,OCI-C5x (clear cell),1,50.3 (active)
RFC1,Vehicle,OCI-C5x (clear cell),2,48.2 (active)
RFC1,Vehicle,OCI-C5x (clear cell),3,34.8 (active)
RFC1,Vehicle,OCI-P5x (serous),1,68.7 (active)
RFC1,Vehicle,OCI-P5x (serous),2,48.7 (active)
RFC1,Vehicle,OCI-P5x (serous),3,62.4 (active)
TRIM66,Rucaparib,OCI-C5x (clear cell),1,81.8
TRIM66,Rucaparib,OCI-C5x (clear cell),2,55.3 (active)
TRIM66,Rucaparib,OCI-C5x (clear cell),3,52.1 (active)
TRIM66,Rucaparib,OCI-P5x (serous),1,86.8
TRIM66,Rucaparib,OCI-P5x (serous),2,92.3
TRIM66,Rucaparib,OCI-P5x (serous),3,76.3 (active)
TRIM66,Vehicle,OCI-C5x (clear cell),1,62.9 (active)
TRIM66,Vehicle,OCI-C5x (clear cell),2,59.6 (active)
TRIM66,Vehicle,OCI-C5x (clear cell),3,61.4 (active)
TRIM66,Vehicle,OCI-P5x (serous),1,110
TRIM66,Vehicle,OCI-P5x (serous),2,133
TRIM66,Vehicle,OCI-P5x (serous),3,85.5

Copied from the list:
Under “viability, normalised (%)”, RFC1, rucaparib or vehicle Rucaparib, cell line OCI-P5x (serous), technical replicate 2 is entered as 78.7 (active)
Under “viability, normalised (%)”, RFC1, rucaparib or vehicle Vehicle, cell line OCI-C5x (clear cell), technical replicate 2 shows 48.2 (active)
Under “viability, normalised (%)”, RFC1, rucaparib or vehicle Rucaparib, cell line OCI-C5x (clear cell), technical replicate 3 is entered as 51.8 (active)

The list goes on:
target gene,rucaparib or vehicle,cell line,technical replicate,"viability, normalised (%)"
H4C8,Rucaparib,OCI-C5x (clear cell),1,47.8 (active)
H4C8,Rucaparib,OCI-C5x (clear cell),2,39.4 (active)
H4C8,Rucaparib,OCI-C5x (clear cell),3,42.9 (active)
H4C8,Rucaparib,OCI-P5x (serous),1,56 (active)
H4C8,Rucaparib,OCI-P5x (serous),2,81.7
H4C8,Rucaparib,OCI-P5x (serous),3,67.5 (active)
H4C8,Vehicle,OCI-C5x (clear cell),1,40 (active)
H4C8,Vehicle,OCI-C5x (clear cell),2,51.7 (active)
H4C8,Vehicle,OCI-C5x (clear cell),3,64.8 (active)
H4C8,Vehicle,OCI-P5x (serous),1,75.1 (active)
H4C8,Vehicle,OCI-P5x (serous),2,85.4
H4C8,Vehicle,OCI-P5x (serous),3,76.9 (active)
RECQL4,Rucaparib,OCI-C5x (clear cell),1,64.4 (active)
RECQL4,Rucaparib,OCI-C5x (clear cell),1,56.7 (active)
RECQL4,Rucaparib,OCI-C5x (clear cell),1,102
RECQL4,Rucaparib,OCI-C5x (clear cell),2,78.3 (active)
RECQL4,Rucaparib,OCI-C5x (clear cell),2,64.5 (active)
RECQL4,Rucaparib,OCI-C5x (clear cell),2,66.4 (active)
RECQL4,Rucaparib,OCI-C5x (clear cell),3,64.8 (active)
RECQL4,Rucaparib,OCI-C5x (clear cell),3,77 (active)
RECQL4,Rucaparib,OCI-C5x (clear cell),3,35.9 (active)
RECQL4,Rucaparib,OCI-P5x (serous),1,76.1 (active)
RECQL4,Rucaparib,OCI-P5x (serous),1,168
RECQL4,Rucaparib,OCI-P5x (serous),1,48.1 (active)
RECQL4,Rucaparib,OCI-P5x (serous),2,117
RECQL4,Rucaparib,OCI-P5x (serous),2,55.4 (active)
RECQL4,Rucaparib,OCI-P5x (serous),2,68.8 (active)
RECQL4,Rucaparib,OCI-P5x (serous),3,56.3 (active)
RECQL4,Rucaparib,OCI-P5x (serous),3,85.5
RECQL4,Rucaparib,OCI-P5x (serous),3,130
RECQL4,Vehicle,OCI-C5x (clear cell),1,55.5 (active)
RECQL4,Vehicle,OCI-C5x (clear cell),1,77.6 (active)
RECQL4,Vehicle,OCI-C5x (clear cell),1,59 (active)
RECQL4,Vehicle,OCI-C5x (clear cell),2,81.1
RECQL4,Vehicle,OCI-C5x (clear cell),2,36 (active)
RECQL4,Vehicle,OCI-C5x (clear cell),2,76.1 (active)
RECQL4,Vehicle,OCI-C5x (clear cell),3,80.4
RECQL4,Vehicle,OCI-C5x (clear cell),3,64.6 (active)
RECQL4,Vehicle,OCI-C5x (clear cell),3,40.7 (active)
RECQL4,Vehicle,OCI-P5x (serous),1,153
RECQL4,Vehicle,OCI-P5x (serous),1,76.2 (active)
RECQL4,Vehicle,OCI-P5x (serous),1,61 (active)
RECQL4,Vehicle,OCI-P5x (serous),2,142
RECQL4,Vehicle,OCI-P5x (serous),2,76.6 (active)
RECQL4,Vehicle,OCI-P5x (serous),2,70.8 (active)
RECQL4,Vehicle,OCI-P5x (serous),3,119
RECQL4,Vehicle,OCI-P5x (serous),3,90.2
RECQL4,Vehicle,OCI-P5x (serous),3,74.2 (active)
